Results deposited as PubChem BioAssay AID504764 (Drosophila RNAi Screening Center, 2011)
Aim: 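Knock-downs that raise or lower a Notch target reporter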 (primary screen). System: Drosophila Kc167 cells. Reagents: long dsRNA against Drosophila genes. Timing: about 5 days (4 days dsRNA, then 24 h after transfection). Treatment: transfection of constitutively active membrane-tethered Notch lacking the extracellular domain, read 24 h later. Measurement: 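Light from a Notch-responsive E(spl)m3 luciferase reporter under active Notch, with control-promoter and no-Notch reporter wells to normalise; raw counts from paired wells a and b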. Reading the numbers: induced reporter light, run 1, well a and induced reporter light, run 1, well b: higher = more light from the Notch target reporter with active Notch; control promoter light, run 1, well a and control promoter light, run 1, well b: higher = more light from the viral control promoter (cell number, transfection, viability); uninduced reporter light, run 1, well a: higher = more light from the Notch target reporter without active Notch. Rule for the call: 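Hit if the duplicate-averaged log2 ratio of induced to control-promoter light gives a plate-wise z beyond ±2, or induced to uninduced beyond ±1.8; weak-control or discordant-duplicate wells dropped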. Calls: active = modifier hit (raised or lowered Notch signal); inactive = not a hit.
The screen tested about 22,000 reagents; below is a random part of those with a known target gene and a result. Over the whole deposit, 403 (1.9%) were called active. 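Unnormalised raw counts per well; ratio z-scores behind the hit calls and whether each hit raises or lowers signal are not deposited.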 A number with no mark means an inactive call. Names joined by + are all predicted targets of the reagent. No sequences are given here. Not given: the amount of reagent.

Gene | DRSC id | induced reporter light, run 1, well a | induced reporter light, run 1, well b | control promoter light, run 1, well a | control promoter light, run 1, well b | uninduced reporter light, run 1, well a
cv-c | DRSC14969 | 2.75e5 | 2.87e5 | 2.14e5 | 2.53e5 | 20175
cv-c | DRSC14970 | 2.35e5 | 2.41e5 | 2.05e5 | 2.23e5 | 18960
cv-c | DRSC14971 | 41265 | 41975 | 25470 | 24710 | 9110
cv-c | DRSC14972 | 2.59e5 | 1.86e5 | 2.28e5 | 2.08e5 | 17305
cv-c | DRSC14973 | 93490 | 1.06e5 | 65985 | 73550 | 9625
cv-c | DRSC16428 | 3.87e5 | 3.50e5 | 3.15e5 | 2.95e5 | 28370
CG11041 | DRSC06025 | 1.38e5 | 92655 | 1.33e5 | 1.31e5 | 12090
COX6AL2 | DRSC10082 | 1.48e5 | 1.15e5 | 1.39e5 | 1.08e5 | 8450
l(2)37Cd | DRSC02069 | 2.35e5 | 2.42e5 | 2.04e5 | 2.17e5 | 18288
eIF3l | DRSC10530 | 1.44e5 (active) | 1.40e5 | 1.32e5 | 1.09e5 | 12020
Klc | DRSC11203 | 1.06e5 | 1.07e5 | 98715 | 43965 | 11400
CG6834 | DRSC16125 | 30825 | 31250 | 64240 | 41035 | 3660
CG42780 | DRSC17514 | 71005 | 64135 | 75055 | 74100 | 6050
Qsox2 | DRSC15287 | 1.75e5 | 2.07e5 | 2.52e5 | 2.71e5 | 15260
corto | DRSC12375 | 94305 | 1.05e5 | 1.03e5 | 95595 | 8065
Sec3 | DRSC10384 | 1.38e5 | 1.26e5 | 89955 | 92695 | 10350
CG9667 | DRSC16535 | 27305 | 29550 | 25670 | 19795 | 2690
CG15209 | DRSC19655 | 1.41e5 | 1.22e5 | 1.64e5 | 1.57e5 | 9035
ng4 | DRSC18805 | 1.10e5 | 1.24e5 | 2.31e5 | 1.90e5 | 7690
Acp95EF | DRSC14102 | 2.08e5 | 2.25e5 | 2.39e5 | 2.65e5 | 18355
RpS26 | DRSC03420 | 5380 | 8170 | 9005 | 6100 | 470
Srp54 | DRSC03442 | 24188 | 25895 | 51090 | 40630 | 1465
Gr98d | DRSC14571 | 1.88e5 | 1.32e5 | 2.10e5 | 2.12e5 | 13455
CG5273 | DRSC18612 | 1.09e5 | 1.25e5 | 1.90e5 | 2.56e5 | 8650
sqa | DRSC06693 | 2.56e5 | 1.68e5 | 1.94e5 | 1.48e5 | 17070
CG33017 | DRSC06573 | 1.42e5 | 1.12e5 | 1.60e5 | 1.19e5 | 12145
CG33017 | DRSC06574 | 97110 | 83100 | 93975 | 96260 | 6685
CG3270 | DRSC04988 | 2.07e5 | 1.76e5 | 1.57e5 | 1.80e5 | 14080
nahoda | DRSC03954 | 64180 | 67440 | 84105 | 75060 | 7865
nahoda | DRSC04126 | 3.06e5 | 2.96e5 | 2.65e5 | 2.87e5 | 20470
CG18088 | DRSC02654 | 1.11e5 | 1.35e5 | 68500 | 90875 | 17790
CG5721 | DRSC06945 | 97130 | 1.04e5 | 2.13e5 | 2.11e5 | 7035
HIPP1 | DRSC11748 | 1.32e5 | 1.12e5 | 99615 | 1.08e5 | 10255
SLIRP1 + anox | DRSC20542 | 1.01e5 | 1.17e5 | 90360 | 69100 | 9110

3 of these entries in another layout:
| Gene | DRSC id | induced reporter light, run 1, well a | induced reporter light, run 1, well b | control promoter light, run 1, well a | control promoter light, run 1, well b | uninduced reporter light, run 1, well a |
| --- | --- | --- | --- | --- | --- | --- |
| CG3270 | DRSC04988 | 2.07e5 | 1.76e5 | 1.57e5 | 1.80e5 | 14080 |
| nahoda | DRSC03954 | 64180 | 67440 | 84105 | 75060 | 7865 |
| nahoda | DRSC04126 | 3.06e5 | 2.96e5 | 2.65e5 | 2.87e5 | 20470 |
